PubChem BioAssay AID1224830 | NIAID – 2016

Test: 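Regulators of TLR4 signalling towards TNF-alpha in macrophage-like cells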 (primary screen)
Cells: human THP-1 monocytic leukaemia cells, TNF dual-luciferase reporter clone, PMA-differentiated to macrophage-like cells
Reagent: siRNA pool against human genes, 50 nM
Duration: LPS for 4 h, given about 3 days after siRNA transfection
Treatment: bacterial LPS (TLR4 ligand), 10 ng/ml
Detection: 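Ratio of firefly to renilla light, scaled to the plate median and expressed as a robust z-score per replicate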
Direction: TNF reporter robust z-score: higher = stronger TNF reporter response to LPS
Hit rule: 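a well is active when its z-score exceeds 2.8 or falls below -1.5; control wells carry no call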
Here is a random part of about 18,000 reagents. About 2,900 of them (16%) were called active. 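Calls are made per well; low scores hint the gene aids the LPS response, high scores that it dampens it.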 Repeated entries: four replicate wells of each siRNA pool.

MRPL47 (mitochondrial ribosomal protein L47) [SID315458282]: TNF reporter robust z-score = 0.54; Call = inactive
MRPL47 (mitochondrial ribosomal protein L47) [SID315458282]: TNF reporter robust z-score = 1.61; Call = inactive
MRPL47 (mitochondrial ribosomal protein L47) [SID315458282]: TNF reporter robust z-score = 0.96; Call = inactive
MRPL47 (mitochondrial ribosomal protein L47) [SID315458282]: TNF reporter robust z-score = 0.19; Call = inactive
USP29 (ubiquitin specific peptidase 29) [SID315458534]: TNF reporter robust z-score = -0.69; Call = inactive
USP29 (ubiquitin specific peptidase 29) [SID315458534]: TNF reporter robust z-score = 0.06; Call = inactive
USP29 (ubiquitin specific peptidase 29) [SID315458534]: TNF reporter robust z-score = 2.03; Call = inactive
USP29 (ubiquitin specific peptidase 29) [SID315458534]: TNF reporter robust z-score = 1.1; Call = inactive
CXCL16 (C-X-C motif chemokine ligand 16) [SID315458618]: TNF reporter robust z-score = -0.74; Call = inactive
CXCL16 (C-X-C motif chemokine ligand 16) [SID315458618]: TNF reporter robust z-score = 0.27; Call = inactive
CXCL16 (C-X-C motif chemokine ligand 16) [SID315458618]: TNF reporter robust z-score = -0.37; Call = inactive
CXCL16 (C-X-C motif chemokine ligand 16) [SID315458618]: TNF reporter robust z-score = 0.59; Call = inactive
NFX1 (nuclear transcription factor, X-box binding 1) [SID315450240]: TNF reporter robust z-score = 1.32; Call = inactive
NFX1 (nuclear transcription factor, X-box binding 1) [SID315450240]: TNF reporter robust z-score = 1.23; Call = inactive
NFX1 (nuclear transcription factor, X-box binding 1) [SID315450240]: TNF reporter robust z-score = 3.24; Call = active
NFX1 (nuclear transcription factor, X-box binding 1) [SID315450240]: TNF reporter robust z-score = 1.68; Call = inactive
STRBP (spermatid perinuclear RNA binding protein) [SID315457612]: TNF reporter robust z-score = 0.01; Call = inactive
STRBP (spermatid perinuclear RNA binding protein) [SID315457612]: TNF reporter robust z-score = -0.94; Call = inactive
STRBP (spermatid perinuclear RNA binding protein) [SID315457612]: TNF reporter robust z-score = -0.48; Call = inactive
STRBP (spermatid perinuclear RNA binding protein) [SID315457612]: TNF reporter robust z-score = -0.13; Call = inactive
TMEM183A (transmembrane protein 183A) [SID315461026]: TNF reporter robust z-score = 1.43; Call = inactive
TMEM183A (transmembrane protein 183A) [SID315461026]: TNF reporter robust z-score = 1.46; Call = inactive
TMEM183A (transmembrane protein 183A) [SID315461026]: TNF reporter robust z-score = 0.31; Call = inactive
TMEM183A (transmembrane protein 183A) [SID315461026]: TNF reporter robust z-score = 0.75; Call = inactive
ASB14 (ankyrin repeat and SOCS box containing 14) [SID315462169]: TNF reporter robust z-score = 5.43; Call = active
ASB14 (ankyrin repeat and SOCS box containing 14) [SID315462169]: TNF reporter robust z-score = 4.39; Call = active
ASB14 (ankyrin repeat and SOCS box containing 14) [SID315462169]: TNF reporter robust z-score = 5.41; Call = active
ASB14 (ankyrin repeat and SOCS box containing 14) [SID315462169]: TNF reporter robust z-score = 4.12; Call = active
CLSTN3 (calsyntenin 3) [SID315453531]: TNF reporter robust z-score = 1.18; Call = inactive
CLSTN3 (calsyntenin 3) [SID315453531]: TNF reporter robust z-score = 1.16; Call = inactive
CLSTN3 (calsyntenin 3) [SID315453531]: TNF reporter robust z-score = 0.05; Call = inactive
CLSTN3 (calsyntenin 3) [SID315453531]: TNF reporter robust z-score = -0.95; Call = inactive
